Results: article PMC12236388, “Investigating the co-assembly of amphipathic peptides” (Faraday Discussions, 2025)
Results are given in words; binding and its absence hold for the method and conditions named.

T1: K(FEFK)2K
T1 construct: designed amphipathic self-assembling peptide, L-amino acids; printed in short form K(FEFK)2K and written out here; forms beta-sheet-rich fibres and a hydrogel at pH 7; also called base peptide; peptide 1; source: synthetic peptide; bought: LifeTein Inc. (HCl salt, nominal purity 95%)
T1 peptide: KFEFKFEFKK


Molecular target: T1, K(FEFK)2K
Experiment: condition: 3.75 mg mL^-1 of each peptide (mass ratio 1:1); FRET or BRET; FITC/Dabcyl quenching in mixed hydrogels: base peptide 3.75 mg mL^-1 plus secondary peptide, total 7.5 mg mL^-1 (mass ratio 1:1), pH 7, water; powders mixed before dissolving, pH raised stepwise with NaOH; quenching percentage compared with base hydrogels at 3.75 and 7.5 mg mL^-1; both purified

| binding | Binder |
| --- | --- |
| no binding | VEVKVEVK [(VEVK)2] |
| no binding | AEAKAEAK [(AEAK)2] |
